The results in this text go back to doi:10.1101/661488.

Sequences and labels used below:
B1: GPHN (postsynaptic protein) (protein, UniProt Q8BUV3 1-769)
chain: MATEGMILTNHDHQIRVGVLTVSDSCFRNLAEDRSGINLKDLVQDPSLLGGTISAYKIVPDEIEEIKETLIDWCDEKELNLILTTGGTGFAPRDVTPEATKEVIEREAPGMALAMLMGSLNVTPLGMLSRPVCGIRGKTLIINLPGSKKGSQECFQFILPALPHAIDLLRDAIVKVKEVHDELEDLPSPPPPLSPPPTTSPHKQTEDKGVQCEEEEEEKKDSGVASTEDSSSSHITAAALAAKIPDSIISRGVQVLPRDTASLSTTPSESPRAQATSRLSTASCPTPKQIRRPDESKGVASRVGSLKARLPSCSSTYSVSEVQSRCSSKENILRASHSAVDITKVARRHRMSPFPLTSMDKAFITVLEMTPVLGTEIINYRDGMGRVLAQDVYAKDNLPPFPASVKDGYAVRAADGPGDRFIIGESQAGEQPTQTVMPGQVMRVTTGAPIPCGADAVVQVEDTELIRESDDGTEELEVRILVQARPGQDIRPIGHDIKRGECVLAKGTHMGPSEIGLLATVGVTEVEVNKFPVVAVMSTGNELLNPEDDLLPGKIRDSNRSTLLATIQEHGYPTINLGIVGDNPDDLLNALNEGISRADVIITSGGVSMGEKDYLKQVLDIDLHAQIHFGRVFMKPGLPTTFATLDIDGVRKIIFALPGNPVSAVVTCNLFVVPALRKMQGILDPRPTIIKARLSCDVKLDPRPEYHRCILTWHHQEPLPWAQSTGNQMSSRLMSMRSANGLLMLPPKTEQYVELHKGEVVDVMVIGRL
B2: PSMD7 (proteasomal protein) (protein, UniProt P26516 1-321)
chain: MPELAVQKVVVHPLVLLSVVDHFNRIGKVGNQKRVVGVLLGSWQKKVLDVSNSFAVPFDEDDKDDSVWFLDHDYLENMYGMFKKVNARERIVGWYHTGPKLHKNDIAINELMKRYCPNSVLVIIDVKPKDLGLPTEAYISVEEVHDDGTPTSKTFEHVTSEIGAEEAEEVGVEHLLRDIKDTTVGTLSQRITNQVHGLKGLNSKLLDIRSYLEKVASGKLPINHQIIYQLQDVFNLLPDASLQEFVKAFYLKTNDQMVVVYLASLIRSVVALHNLINNKIANRDAEKKEGQEKEESKKERKDDKEKEKSDAAKKEEKKEKK
B3: PSMD13 (proteasomal protein) (protein, UniProt Q9WVJ2 1-376)
chain: MKDVPAFLQQSQSSGPGQAAVWHRLEELYTKKLWHQLTLEVLDFVQDPCFAQGDGLIKLYENFISEFEHRVNPLSLVEIILHVVRQMTDPNVALTFLEKTREKVKSSDEAVILCKTAIGALKLNIGDLQATKETIEDVEEMLNNLPGVTSVHSRFYDLSSKYYQTIGNHASYYKDALRFLGCVDIKDLPVSEQQERAFTLGLAGLLGEGVFNFGELLMHPVLESLRDTDRQWLIDTLYAFNSGAVDRFQTLKCAWGQQPDLAANEAQLLRKIQLLCLMEMTFTRPANHRQLTFEEIAKSAKITVNKVELLVMKALSVGLVRGSIDEVDKRVHMTWVQPRVLDLQQIKGMKDRLELWCTDVKSMEMLVEHQAQDILT

No constants are given. Whether binding was seen depends on the method and setting. Binding seen in cells or lysates may run through a third protein. These calls come from enrichment with a bait or labelling near it, and not all partners need be listed.

For the assay, the target named is AMPKα (α catalytic subunit of AMPK) (mouse (endogenous in DRG)). The experiment in a line: affinity purification with mass spectrometry.
For B1, the binding result is on record as “binds”.

As for B2, the binding result was “binds”.

Consider B3, for which the binding entry is given as “binds”.
